These are yes or no findings as the source states them, for the method shown. Some binding calls cover weakened binding; strength is not graded here.
Experiments:
[1] = target: myristoylated human Arf1, GTP-bound form, anchored on membrane (nanodiscs or LUVs) (human) (UniProt P84077); assay: 31P NMR; 1D 31P spectra of GTPγS bound to myrArf1 at the membrane, without and with wt PH; 25 °C; both purified
[2] = target: myristoylated human Arf1, GTP-bound form, anchored on membrane (nanodiscs or LUVs) (human) (UniProt P84077); assay: NMR, 1H-15N TROSY-HSQC line broadening; labelled myrArf1 on nanodiscs containing PI(4,5)P2, alone or with a stoichiometric ratio of wt PH; both purified
[3] = target: myristoylated human Arf1, GTP-bound form, anchored on membrane (nanodiscs or LUVs) (human) (UniProt P84077); assay: NMR titration; 1H-13C methyl HMQC and 1H-15N spectra of isotopically labelled wt PH on nanodiscs without and with nanodisc-associated myrArf1 at one ratio (PH:Arf1 1:1.2); both purified
[4] = target: MTSL-tagged myrArf1 K38C (Cys159 mutated to Ala) (human) (UniProt P84077); assay: NMR paramagnetic relaxation enhancement; 60 μM MTSL-labelled protiated myrArf1 variant on nanodiscs, 50 μM methyl-labelled ASAP1 PH; paramagnetic against ascorbate-reduced sample; 25 °C; both purified
[5] = target: MTSL-tagged myrArf1 K73C (Cys159 mutated to Ala) (human) (UniProt P84077); assay: as above
[6] = target: myristoylated human Arf1, GTP-bound form, anchored on membrane (nanodiscs or LUVs) (human) (UniProt P84077); assay: NMR titration; 1H-13C methyl HMQC of ILV-methyl-labelled, otherwise perdeuterated myrArf1·GTPγS on nanodiscs (PC:PI(4,5)P2 95:5) without and with 2H or 1H PH domain at one ratio (Arf:PH 1:1.2); 25 °C; 20 mM Tris-HCl pH 7.4, 150 mM NaCl, 1 mM MgCl2, 0.5 mM TCEP; both purified
[7] = target: myristoylated human Arf1, GTP-bound form, anchored on membrane (nanodiscs or LUVs) (human) (UniProt P84077); assay: other fluorescence titration + other: inhibition of the GAP activity of wt PZA; proxies for affinity: (1) rate of mant-GTP dissociation from myrArf1 (Trp to mant FRET) against PH concentration, LUVs with 5 mol% PI(4,5)P2, excess GTP; (2) IC50 of PH domain on GTP hydrolysis in 3 min with myrArf1·GTP below the Km and 1 nM wt PZA; both purified

Amino acid sequences for entries named in this document (tags omitted). A change or cut given only in a name is not applied to a line headed by its entry. Chains listed by the source or under a name are the forms on record and can include a tag or linker. Residues count along the entry.
UniProt P84077: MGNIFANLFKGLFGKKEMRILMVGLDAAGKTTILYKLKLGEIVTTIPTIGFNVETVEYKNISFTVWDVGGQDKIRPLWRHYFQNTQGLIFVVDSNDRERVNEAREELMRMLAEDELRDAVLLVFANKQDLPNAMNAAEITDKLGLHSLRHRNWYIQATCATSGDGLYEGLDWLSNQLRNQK
MTSL-tagged myrArf1 K38C (Cys159 mutated to Ala) (P84077, form named): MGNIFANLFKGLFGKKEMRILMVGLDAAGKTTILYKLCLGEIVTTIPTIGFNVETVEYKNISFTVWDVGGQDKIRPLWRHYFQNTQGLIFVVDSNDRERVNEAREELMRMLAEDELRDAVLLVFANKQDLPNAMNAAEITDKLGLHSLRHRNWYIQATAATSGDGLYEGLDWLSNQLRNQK
MTSL-tagged myrArf1 K73C (Cys159 mutated to Ala) (P84077, form named): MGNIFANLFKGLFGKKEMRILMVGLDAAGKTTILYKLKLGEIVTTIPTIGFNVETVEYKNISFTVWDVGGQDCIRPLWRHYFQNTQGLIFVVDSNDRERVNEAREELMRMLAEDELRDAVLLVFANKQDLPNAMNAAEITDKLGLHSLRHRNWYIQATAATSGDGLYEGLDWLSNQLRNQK
wt ASAP1 PH domain, [325–451]ASAP1 (Q9QWY8, residues 325-451): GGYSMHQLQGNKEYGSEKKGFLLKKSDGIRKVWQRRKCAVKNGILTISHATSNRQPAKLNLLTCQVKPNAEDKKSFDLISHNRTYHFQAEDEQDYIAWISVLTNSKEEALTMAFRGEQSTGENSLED
ΔN14 ASAP1 PH domain, [339–451]ASAP1 (Q9QWY8, residues 339-451): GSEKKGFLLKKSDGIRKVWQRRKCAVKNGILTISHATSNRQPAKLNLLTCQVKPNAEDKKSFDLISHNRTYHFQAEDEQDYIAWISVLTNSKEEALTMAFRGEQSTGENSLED

binding [1] | binding [2] | binding [3] | binding [4] | binding [5] | binding [6] | binding [7] | Substance
binds | binds | binds | binds | binds | binds | binds | wt ASAP1 PH domain, [325–451]ASAP1 (from UniProt Q9QWY8 325-451) (domain or fragment)
 |  |  |  |  | binds |  | ΔN14 ASAP1 PH domain, [339–451]ASAP1 (from UniProt Q9QWY8 339-451) (domain or fragment)

Source: publication doi:10.1101/2024.12.20.629688
